Values from PubChem BioAssay AID602196 (INSERM, 2012).
Screen: 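Genes whose knock-down alters cisplatin killing of lung cancer cells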. Cells: human A549 lung cancer cells. Reagent: siRNA pair against human genes. Timing: 48 h transfection before cisplatin; time from cisplatin to read-out not stated. Conditions: cisplatin at a dose killing half of control-siRNA cells; exact dose and duration not given. Detection: 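Shift in cisplatin death relative to control siRNA, from -50 (all cells die) to +50 (no cells die); siRNAs harmful on their own scored 0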. Reading the numbers: two-siRNA summed score (-2 to +2): higher = both siRNAs protect from cisplatin killing; -2 means both sensitise; mean protection from cisplatin (shift in death) and protection from cisplatin (shift in death), siRNA C and protection from cisplatin (shift in death), siRNA D: higher = protection from cisplatin killing. Active means: 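siRNAs harmful alone (LDH or WST-1) get 0; others get +1 for less and -1 for more cisplatin killing; genes are active when the two siRNAs give the same sign, summing to ±2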. Calls: active = both siRNAs shift cisplatin killing the same way; inactive = no consistent shift, or siRNA harmful alone.
The whole screen tested about 23,000 reagents; this is a random part of them. Of all reagents, 455 (2%) were called active. 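Active includes both protection and sensitisation; some change values fall well beyond the stated -50 to +50 range.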 Not given: the amount of reagent.

| gene | two-siRNA summed score (-2 to +2) | mean protection from cisplatin (shift in death) (%) | protection from cisplatin (shift in death), siRNA C (%) | protection from cisplatin (shift in death), siRNA D (%) | Call |
| --- | --- | --- | --- | --- | --- |
| H3-3B | 0 | 26.2 | 42.7 | 9.8 | inactive |
| RASSF4 | 1 | 15 | 22.1 | 8 | inactive |
| PLAA | 1 | 6.6 | 13.5 | -0.4 | inactive |
| LOC441005 | 1 | 15.6 | 28.8 | 2.4 | inactive |
| TP53BP1 | 0 | 5.9 | 1.9 | 9.8 | inactive |
| TYW5 | 0 | -3.6 | -12.7 | 5.4 | inactive |
| MRPL43 | 2 | 19.3 | 18.9 | 19.7 | active |
| DLX1 | 1 | 1.3 | -9.5 | 12.2 | inactive |
| SLC12A4 | 0 | -4.4 | -23.6 | 14.8 | inactive |
| KIF5B | 0 | 3.8 | 12.4 | -4.7 | inactive |
| SCCPDH | 0 | -2.1 | -4.5 | 0.3 | inactive |
| DENND4C | 0 | 7.1 | 10.2 | 4.1 | inactive |
| LINC00314 | 0 | 8.4 | 9.4 | 7.4 | inactive |
| OBI1 | 1 | 10.1 | 13.4 | 6.8 | inactive |
| HAGH | 0 | 23.1 | 27.6 | 18.5 | inactive |
| SSX9P | 0 | -2.7 | -8 | 2.6 | inactive |
| ZSWIM6 | 0 | 4.2 | 11.7 | -3.3 | inactive |
| PIK3C2G | 1 | 16.3 | 17.8 | 14.9 | inactive |
| GPR151 | 0 | 5 | 9.1 | 1 | inactive |
| FAM3D | 0 | -0.7 | -12.6 | 11.2 | inactive |
| LIPA | 0 | 0.2 | 0.9 | -0.6 | inactive |
| NPNT | 1 | 8 | 16.5 | -0.4 | inactive |
| ZNF605 | 0 | 4.9 | 3.9 | 5.9 | inactive |
| BRPF1 | 0 | 4.2 | 24.4 | -16 | inactive |
| CKMT1B | 0 | 3.8 | 12.2 | -4.6 | inactive |
| RCOR2 | -1 | -9.2 | -3 | -15.4 | inactive |
| PAX9 | 0 | -5.5 | -21 | 10.1 | inactive |
| LOC442722 | 0 | 5.9 | 4.7 | 7.1 | inactive |
| C8orf17 | 0 | 3.3 | -2.2 | 8.9 | inactive |
| RANBP10 | 0 | -11.5 | -1.2 | -21.8 | inactive |
| DUSP23 | -1 | -2 | 13.1 | -17.1 | inactive |
| N4BP2 | 0 | 0.1 | 0.4 | -0.3 | inactive |
| LOC440333 | 1 | 20.4 | 28 | 12.8 | inactive |
| C6orf58 | 1 | 13.1 | 9.3 | 16.8 | inactive |
| OR1K1 | 0 | 13.9 | 5.6 | 22.3 | inactive |
| TMCC3 | 0 | 0.7 | -6.3 | 7.6 | inactive |
| MINDY1 | 0 | 6.8 | 4.4 | 9.3 | inactive |
| CALU | -1 | -9.4 | -5.8 | -13 | inactive |
| FZR1 | 0 | -8.1 | 12.9 | -29.2 | inactive |
| ABCB7 | -1 | -7.9 | 2.3 | -18.1 | inactive |
| ANO7 | 1 | 8.8 | 23.7 | -6.2 | inactive |
| FKBP1A | 0 | 3.6 | 3.9 | 3.4 | inactive |
| LOC441260 | 0 | 3.2 | 1.7 | 4.6 | inactive |
| SNX13 | -1 | -12.9 | 7.4 | -33.2 | inactive |
| TBL1XR1 | 0 | 5.5 | 21.1 | -10 | inactive |
| ARL14EP | 1 | 16.9 | 14.9 | 18.9 | inactive |
| TNMD | 0 | -0.6 | -2.4 | 1.3 | inactive |
| GEMIN6 | 0 | -6.2 | -8.1 | -4.3 | inactive |
| LOC442424 | 0 | 9.7 | 5.5 | 13.8 | inactive |
| C12orf75 | 1 | 2.2 | -4.6 | 9.1 | inactive |
| GAPVD1 | 0 | 0 | -10.8 | 10.7 | inactive |
| GIMAP6 | -1 | -0.5 | 6.1 | -7.1 | inactive |
| TMPRSS5 | 0 | -0.6 | -3.3 | 2 | inactive |
| LYPD2 | 1 | 11.8 | -4.4 | 28 | inactive |
| E2F3 | 0 | 6.3 | 8.1 | 4.5 | inactive |
| ABCG5 | 1 | 5.3 | 21.6 | -11.1 | inactive |
| GALK1 | -1 | 4.9 | 27.5 | -17.6 | inactive |
| C10orf53 | 0 | 0.9 | -9 | 10.9 | inactive |
| YTHDC1 | 0 | -6.9 | -9.4 | -4.3 | inactive |
| ADH7 | 1 | 3.2 | 10.4 | -4 | inactive |
| HAUS1 | 0 | 14.1 | 12.6 | 15.7 | inactive |
| LINC01559 | 0 | 4.7 | 3.8 | 5.6 | inactive |
| LOC441593 | 1 | 22.1 | 22.5 | 21.6 | inactive |
| RNASEL | 0 | 9.6 | 16.6 | 2.6 | inactive |
| METTL2B | 0 | 11.5 | 14.9 | 8.2 | inactive |
| LOC344797 | 0 | 9.2 | 11.5 | 6.9 | inactive |
| ST13P5 | 0 | 11 | 8.6 | 13.5 | inactive |
| KRCC1 | 0 | 8.6 | 10.8 | 6.4 | inactive |
| HPCA | 0 | -1.7 | 3.1 | -6.4 | inactive |
| ZNF461 | 0 | 5.7 | 6.4 | 4.9 | inactive |
| EIF4EBP1 | 0 | 7.6 | -3.6 | 18.8 | inactive |
| TMEM215 | 0 | 0.8 | -10.1 | 11.7 | inactive |
| LOC442605 | 1 | 11.6 | 10.1 | 13.2 | inactive |

In a second layout: 10 of the entries above.
GAPVD1
- two-siRNA summed score (-2 to +2): 0
- mean protection from cisplatin (shift in death) (%): 0
- protection from cisplatin (shift in death), siRNA C (%): -10.8
- protection from cisplatin (shift in death), siRNA D (%): 10.7
- Call: inactive

GIMAP6
- two-siRNA summed score (-2 to +2): -1
- mean protection from cisplatin (shift in death) (%): -0.5
- protection from cisplatin (shift in death), siRNA C (%): 6.1
- protection from cisplatin (shift in death), siRNA D (%): -7.1
- Call: inactive

TMPRSS5
- two-siRNA summed score (-2 to +2): 0
- mean protection from cisplatin (shift in death) (%): -0.6
- protection from cisplatin (shift in death), siRNA C (%): -3.3
- protection from cisplatin (shift in death), siRNA D (%): 2
- Call: inactive

LYPD2
- two-siRNA summed score (-2 to +2): 1
- mean protection from cisplatin (shift in death) (%): 11.8
- protection from cisplatin (shift in death), siRNA C (%): -4.4
- protection from cisplatin (shift in death), siRNA D (%): 28
- Call: inactive

E2F3
- two-siRNA summed score (-2 to +2): 0
- mean protection from cisplatin (shift in death) (%): 6.3
- protection from cisplatin (shift in death), siRNA C (%): 8.1
- protection from cisplatin (shift in death), siRNA D (%): 4.5
- Call: inactive

ABCG5
- two-siRNA summed score (-2 to +2): 1
- mean protection from cisplatin (shift in death) (%): 5.3
- protection from cisplatin (shift in death), siRNA C (%): 21.6
- protection from cisplatin (shift in death), siRNA D (%): -11.1
- Call: inactive

GALK1
- two-siRNA summed score (-2 to +2): -1
- mean protection from cisplatin (shift in death) (%): 4.9
- protection from cisplatin (shift in death), siRNA C (%): 27.5
- protection from cisplatin (shift in death), siRNA D (%): -17.6
- Call: inactive

C10orf53
- two-siRNA summed score (-2 to +2): 0
- mean protection from cisplatin (shift in death) (%): 0.9
- protection from cisplatin (shift in death), siRNA C (%): -9
- protection from cisplatin (shift in death), siRNA D (%): 10.9
- Call: inactive

YTHDC1
- two-siRNA summed score (-2 to +2): 0
- mean protection from cisplatin (shift in death) (%): -6.9
- protection from cisplatin (shift in death), siRNA C (%): -9.4
- protection from cisplatin (shift in death), siRNA D (%): -4.3
- Call: inactive

ADH7
- two-siRNA summed score (-2 to +2): 1
- mean protection from cisplatin (shift in death) (%): 3.2
- protection from cisplatin (shift in death), siRNA C (%): 10.4
- protection from cisplatin (shift in death), siRNA D (%): -4
- Call: inactive
